# PubChem BioAssay AID504808 – Drosophila RNAi Screening Center – 2011
# Assay: 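Genes whose loss lifts activity of an E2F-responsive reporter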 (primary screen)
# Cell system: Drosophila S2 cells
# Knock-down reagent: long dsRNA against Drosophila genes
# Measurement: 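Firefly luciferase driven by E2F sites, normalised to Renilla luciferase on the same minimal promoter, measured by plate reader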
# Scale: E2F firefly: higher = more E2F reporter activity; Renilla normaliser: higher = more normaliser reporter signal
# Active means: 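a knock-down counted as active when the firefly/Renilla E2F signal rose above 50%, a threshold chosen arbitrarily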
# The deposit covers about 21,000 reagents; below is an unselected part of those with a known target gene and a result. In the full data, 18 (0.084%) were called active. 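Raw counts without plate normalisation, one of two replicates; the ratio scores behind the calls were not deposited.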 A number with no mark means an inactive call. Names joined by + are all predicted targets of the reagent. The record does not give: the amount of reagent, the time to read-out.
target gene,DRSC id,"E2F firefly, rep 1","Renilla normaliser, rep 1"
dpr11 (defective proboscis extension response 11),DRSC12561,1.47e5,6994
dpr11 (defective proboscis extension response 11),DRSC12562,1.45e5,6434
dpr11 (defective proboscis extension response 11),DRSC12563,1.51e5,6972
Cfp1 (CXXC finger protein 1),DRSC18128,93820,5411
NO66 (Nucleolar protein 66),DRSC18252,1862,932
Pus10 (Pseudouridine synthase 10),DRSC00629,1.02e5,4034
SLC22A (SLC22A family member),DRSC11826,1.33e5,6952
SLC22A (SLC22A family member),DRSC11827,1.32e5,6764
CG15317,DRSC18005,1.25e5,6150
bab1 (bric a brac 1),DRSC08379,1.00e5,4063
bab1 (bric a brac 1),DRSC08709,96177,3296
CG13063,DRSC09946,1.60e5,7811
RalGPS (Ral GEF with PH domain and SH3 binding motif),DRSC06941,62158,3036
CG14369,DRSC14831,1.14e5,6884
tmod (tropomodulin),DRSC13993,84603,2680
tmod (tropomodulin),DRSC14314,1.09e5,6727
tmod (tropomodulin),DRSC15076,1.30e5,6927
tmod (tropomodulin),DRSC17062,1850,844
CG33307,DRSC01349,90945,5593
Parp1 (Poly-(ADP-ribose) polymerase 1),DRSC07725,1.71e5,5855
Parp1 (Poly-(ADP-ribose) polymerase 1),DRSC07778,1.15e5,4275
Parp1 (Poly-(ADP-ribose) polymerase 1),DRSC07780,98510,4190
Ugt37E1 (UDP-glycosyltransferase family 37 member E1),DRSC02248,1.11e5,4765
Psf1 (Partner of Sld Five 1),DRSC08638,78655,2881
Jhbp16 (Juvenile hormone binding protein 16),DRSC15039,1.32e5,8494
Cdc16 (Cell division cycle 16),DRSC16920,99035,6144
unc (uncoordinated),DRSC20511,1.41e5,6431
CG12766,DRSC08295,94368,4583
Rexo5 (RNA exonuclease 5),DRSC10981,82459,4162
slp2 (sloppy paired 2),DRSC00836,1.53e5,5190
CG32206,DRSC09602,79088,3690
CG32206,DRSC10094,1.45e5,6965
CG32206,DRSC10095,1.48e5,7278
CG32206,DRSC10096,1.44e5,7950
CG32206,DRSC11080,1.41e5,7518
mRpL22 (mitochondrial ribosomal protein L22),DRSC19915,2.32e5,7012

Just “Renilla normaliser, rep 1”, for 8 of the entries above:
CG12766 [DRSC08295] = 4583
Rexo5 (RNA exonuclease 5) [DRSC10981] = 4162
slp2 (sloppy paired 2) [DRSC00836] = 5190
CG32206 [DRSC09602] = 3690
CG32206 [DRSC10094] = 6965
CG32206 [DRSC10095] = 7278
CG32206 [DRSC10096] = 7950
CG32206 [DRSC11080] = 7518

More entries:
target gene,DRSC id,"E2F firefly, rep 1","Renilla normaliser, rep 1"
CG1161,DRSC12180,61964,3977
hog,DRSC19057,90666,3432
bond (james bond),DRSC16135,56437,3012
wtrw (water witch),DRSC14241,77180,3825
wtrw (water witch),DRSC15278,1.27e5,6721
CG6357,DRSC06979,182,43
CG14518,DRSC14870,1.05e5,5489
spirit (Serine Protease Immune Response Integrator),DRSC18202,6898,708
UbcE2H (Ubiquitin conjugating enzyme E2H),DRSC18221,8595,956
CG32683,DRSC17990,1.33e5,5244
CG32683,DRSC18232,64398,5482
CG32683,DRSC18233,54310,4016
CG15549,DRSC15087,1.32e5,7492
Culd (CUB and LDLa domain),DRSC10262,91652,3756
OS9 + Hf,DRSC03392,86043,3667
phr (photorepair),DRSC07662,1.48e5,4817
Caper,DRSC02137,88655,3223
CG11069,DRSC14289,66584,3558
Rassf (Ras association family member),DRSC15612,63304,3263
Fili (Fish-lips),DRSC03907,1.09e5,3800
Fili (Fish-lips),DRSC04132,1.01e5,4395
Fili (Fish-lips),DRSC04445,1.02e5,4605
